This note sets out measurements from paper PMC2680019.

Residue numbers refer to the chain shown, from its start. In names and notes the source's numbering stands. Results are given in words; binding and its absence hold for the method and conditions named. Binding seen in cells or lysates may run through a third protein. Some results given as binding are weak or reduced against the parent protein; the word gives no strength. Where a sequence is shown, tags or fusion partners need not be part of it.

This assay addresses T1, Myc-tagged Tensin2 1-1409 (WT, wild-type) (UniProt Q63HR2).
T1 sequence: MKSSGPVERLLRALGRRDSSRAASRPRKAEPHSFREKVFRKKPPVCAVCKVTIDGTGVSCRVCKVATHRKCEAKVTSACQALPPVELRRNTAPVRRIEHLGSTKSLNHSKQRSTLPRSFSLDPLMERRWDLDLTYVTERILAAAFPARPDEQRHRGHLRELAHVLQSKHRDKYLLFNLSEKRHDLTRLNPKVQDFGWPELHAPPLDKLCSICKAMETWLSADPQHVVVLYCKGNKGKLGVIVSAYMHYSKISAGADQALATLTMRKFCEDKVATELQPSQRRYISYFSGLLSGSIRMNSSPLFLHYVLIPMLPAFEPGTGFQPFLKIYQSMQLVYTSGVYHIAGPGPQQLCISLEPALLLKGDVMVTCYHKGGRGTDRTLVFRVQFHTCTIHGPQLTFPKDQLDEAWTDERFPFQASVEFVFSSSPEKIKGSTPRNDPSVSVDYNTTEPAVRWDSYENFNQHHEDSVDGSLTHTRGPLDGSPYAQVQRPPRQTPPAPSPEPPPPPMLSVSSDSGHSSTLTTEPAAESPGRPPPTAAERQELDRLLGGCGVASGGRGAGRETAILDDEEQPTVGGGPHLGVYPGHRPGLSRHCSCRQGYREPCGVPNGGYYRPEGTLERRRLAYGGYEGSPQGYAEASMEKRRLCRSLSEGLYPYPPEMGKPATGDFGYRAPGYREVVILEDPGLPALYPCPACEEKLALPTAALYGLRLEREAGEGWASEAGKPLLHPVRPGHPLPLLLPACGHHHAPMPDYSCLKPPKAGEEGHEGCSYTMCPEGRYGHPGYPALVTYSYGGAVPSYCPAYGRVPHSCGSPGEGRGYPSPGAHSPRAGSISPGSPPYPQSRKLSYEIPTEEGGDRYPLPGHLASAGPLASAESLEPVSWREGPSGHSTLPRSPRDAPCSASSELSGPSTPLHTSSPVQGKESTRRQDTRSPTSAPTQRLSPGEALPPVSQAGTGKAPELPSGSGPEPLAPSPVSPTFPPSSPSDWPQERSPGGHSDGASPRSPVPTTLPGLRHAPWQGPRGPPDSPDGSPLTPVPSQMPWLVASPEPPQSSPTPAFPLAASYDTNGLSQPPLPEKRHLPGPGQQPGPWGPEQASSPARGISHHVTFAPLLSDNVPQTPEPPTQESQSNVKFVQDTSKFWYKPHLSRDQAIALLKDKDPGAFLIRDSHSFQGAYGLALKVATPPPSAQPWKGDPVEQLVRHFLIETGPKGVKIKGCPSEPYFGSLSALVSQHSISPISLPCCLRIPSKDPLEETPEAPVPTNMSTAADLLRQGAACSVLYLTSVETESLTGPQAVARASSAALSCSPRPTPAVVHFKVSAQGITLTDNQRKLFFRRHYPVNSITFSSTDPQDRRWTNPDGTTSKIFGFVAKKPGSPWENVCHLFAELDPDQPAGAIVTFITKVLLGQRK
Nature of the assay: co-IP; HEK293T co-transfected with Myc-tagged tensin and FLAG-tagged DLC1 (or GFP-tagged DLC2); cleared lysate in NET-N buffer (25 mM Tris-HCl pH 8.0, 50 mM NaCl, 0.2 mM EDTA, 0.1% NP40); anti-Myc antibody overnight at 4°C, protein-A sepharose, 5 washes; blot with anti-FLAG (anti-GFP for DLC2).

B1: GFP-tagged DLC2α (protein, UniProt Q9Y3M8-1 1-1113)
chain: MFSQVPRTPASGCYYLNSMTPEGQEMYLRFDQTTRRSPYRMSRILARHQLVTKIQQEIEAKEACDWLRAAGFPQYAQLYEDSQFPINIVAVKNDHDFLEKDLVEPLCRRLNTLNKCASMKLDVNFQRKKGDDSDEEDLCISNKWTFQRTSRRWSRVDDLYTLLPRGDRNGSPGGTGMRNTTSSESVLTDLSEPEVCSIHSESSGGSDSRSQPGQCCTDNPVMLDAPLVSSSLPQPPRDVLNHPFHPKNEKPTRARAKSFLKRMETLRGKGAHGRHKGSGRTGGLVISGPMLQQEPESFKAMQCIQIPNGDLQNSPPPACRKGLPCSGKSSGESSPSEHSSSGVSTPCLKERKCHEANKRGGMYLEDLDVLAGTALPDAGDQSRMHEFHSQENLVVHIPKDHKPGTFPKALSIESLSPTDSSNGVNWRTGSISLGREQVPGAREPRLMASCHRASRVSIYDNVPGSHLYASTGDLLDLEKDDLFPHLDDILQHVNGLQEVVDDWSKDVLPELQTHDTLVGEPGLSTFPSPNQITLDFEGNSVSEGRTTPSDVERDVTSLNESEPPGVRDRRDSGVGASLTRPNRRLRWNSFQLSHQPRPAPASPHISSQTASQLSLLQRFSLLRLTAIMEKHSMSNKHGWTWSVPKFMKRMKVPDYKDKAVFGVPLIVHVQRTGQPLPQSIQQALRYLRSNCLDQVGLFRKSGVKSRIHALRQMNENFPENVNYEDQSAYDVADMVKQFFRDLPEPLFTNKLSETFLHIYQYVSKEQRLQAVQAAILLLADENREVLQTLLCFLNDVVNLVEENQMTPMNLAVCLAPSLFHLNLLKKESSPRVIQKKYATGKPDQKDLNENLAAAQGLAHMIMECDRLFEVPHELVAQSRNSYVEAEIHVPTLEELGTQLEESGATFHTYLNHLIQGLQKEAKEKFKGWVTCSSTDNTDLAFKKVGDGNPLKLWKASVEVEAPPSVVLNRVLRERHLWDEDFVQWKVVETLDRQTEIYQYVLNSMAPHPSRDFVVLRTWKTDLPKGMCTLVSLSVEHEEAQLLGGVRAVVMDSQYLIEPCGSGKSRLTHICRIDLKGHSPEWYSKGFGHLCAAEVARIRNSFQPLIAEGPETKI
For the molecule B1, the binding result is “binds”.

B2: GFP-tagged DLC2α R740E (protein, UniProt Q9Y3M8-1 1-1113)
chain: B1 chain with R740E
As for B2, the binding entry was “binds”.
